Laboratory results: PubChem BioAssay AID1259308 (NCATS, 2017)
Assay: 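Candidate targets for better recombinant protein yield in mammalian cells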 (primary screen). Cells: human HEK293 embryonic kidney cells stably expressing firefly luciferase (HEK-CMV-Luc2-Hygro). Reagents: single siRNA against human genes, 0.8 pmol siRNA per well. Duration: 72 h. Read-out: 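Reporter luminescence and viable-cell signal on separate replicate plates, given as percent of non-targeting control and median/MAD z-scores, plus per-cell luciferase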. Direction: total luciferase, z-score and total luciferase, % of control: higher = more reporter protein produced. Active means: 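An siRNA counts as active if its total luciferase robust z-score exceeds 3; genes with two or more such siRNAs out of three were retested with fresh siRNAs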. Meaning of the calls: active = raised luciferase; inactive = no rise.
The whole screen tested about 59,000 reagents; this is a random part of them. About 1,510 of all reagents (2.6%) count as active. 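Calls use total luciferase alone and ignore viability, so some active siRNAs may act by altering cell number.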 The numbers tell different reagents against one gene apart. Further read-outs or replicates are left out here. No sequences are given here.

PPIAP72 #1 — total luciferase, z-score: -0.904; total luciferase, % of control: 63.9; outcome: inactive
PPIAP72 #2 — total luciferase, z-score: 0.165; total luciferase, % of control: 85.2; outcome: inactive
PPIAP72 #3 — total luciferase, z-score: 0.754; total luciferase, % of control: 96.9; outcome: inactive
ZFYVE1 #1 — total luciferase, z-score: -1.3; total luciferase, % of control: 56; outcome: inactive
ZFYVE1 #2 — total luciferase, z-score: 0.041; total luciferase, % of control: 82.7; outcome: inactive
ZFYVE1 #3 — total luciferase, z-score: 0.245; total luciferase, % of control: 86.8; outcome: inactive
ZNF546 #1 — total luciferase, z-score: 1.12; total luciferase, % of control: 104; outcome: inactive
ZNF546 #2 — total luciferase, z-score: 0.962; total luciferase, % of control: 101; outcome: inactive
ZNF546 #3 — total luciferase, z-score: -0.0738; total luciferase, % of control: 80.4; outcome: inactive
RPS17 #1 — total luciferase, z-score: -0.186; total luciferase, % of control: 78.2; outcome: inactive
RPS17 #2 — total luciferase, z-score: -2.18; total luciferase, % of control: 38.5; outcome: inactive
RPS17 #3 — total luciferase, z-score: -2.12; total luciferase, % of control: 39.7; outcome: inactive
GIPC1 #1 — total luciferase, z-score: -0.247; total luciferase, % of control: 77; outcome: inactive
GIPC1 #2 — total luciferase, z-score: 0.23; total luciferase, % of control: 86.5; outcome: inactive
GIPC1 #3 — total luciferase, z-score: -1.74; total luciferase, % of control: 47.2; outcome: inactive
CCDC63 #1 — total luciferase, z-score: 1.17; total luciferase, % of control: 105; outcome: inactive
CCDC63 #2 — total luciferase, z-score: -0.465; total luciferase, % of control: 72.6; outcome: inactive
CCDC63 #3 — total luciferase, z-score: 0.341; total luciferase, % of control: 88.7; outcome: inactive

A stretch from the list above, as a working copy:
ZNF546 #2 — total luciferase, z-score: 0.962; total luciferase, % of control: 101; outcome: inactive
ZNF546 #3 — total luciferase, z-score: -0.0738; total luciferase, % of control: 80.4; outcome: inactive
RPS17 #1 — total luciferase, z-score: -0.186; total luciferase, % of control: 78.2; outcome: inactive

The results go on:
PHF13 #1 — total luciferase, z-score: 1.8; total luciferase, % of control: 118; outcome: inactive
PHF13 #2 — total luciferase, z-score: -0.534; total luciferase, % of control: 71.3; outcome: inactive
PHF13 #3 — total luciferase, z-score: 0.254; total luciferase, % of control: 86.9; outcome: inactive
TMX2 #1 — total luciferase, z-score: -0.324; total luciferase, % of control: 75.4; outcome: inactive
TMX2 #2 — total luciferase, z-score: -1.88; total luciferase, % of control: 44.6; outcome: inactive
TMX2 #3 — total luciferase, z-score: 0.16; total luciferase, % of control: 85.1; outcome: inactive
TRIM55 #1 — total luciferase, z-score: -1.15; total luciferase, % of control: 59.1; outcome: inactive
TRIM55 #2 — total luciferase, z-score: -0.484; total luciferase, % of control: 72.3; outcome: inactive
TRIM55 #3 — total luciferase, z-score: 3.34; total luciferase, % of control: 148; outcome: active
LINGO2 #1 — total luciferase, z-score: -1.64; total luciferase, % of control: 49.3; outcome: inactive
LINGO2 #2 — total luciferase, z-score: -0.323; total luciferase, % of control: 75.5; outcome: inactive
LINGO2 #3 — total luciferase, z-score: 0.813; total luciferase, % of control: 98.1; outcome: inactive
N4BP1 #1 — total luciferase, z-score: 0.264; total luciferase, % of control: 87.1; outcome: inactive
N4BP1 #2 — total luciferase, z-score: 0.358; total luciferase, % of control: 89; outcome: inactive
N4BP1 #3 — total luciferase, z-score: -0.66; total luciferase, % of control: 68.8; outcome: inactive
